# Results from the supplement of paper PMC11438910.
# Some of the results follow. The signal is at background level for most entries.
# Experiments:
# Test in all cases: fluorescence intensity of antibody binding to polysaccharide-coupled beads; higher = stronger binding
# [1] = biological target: pneumococcal polysaccharide Pn10A
# Method: (§1)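 Recombinant rhesus-murine chimeric IgG1 antibodies were tested against antigen-coupled MagPlex beads in a 96-plex Luminex direct immunoassay (dLIA). The beads carried pneumococcal capsular polysaccharides of 93 serotypes plus C-polysaccharides. Antibody was added at 0.1–12,500 ng/mL for 1 h, then PE anti-mouse IgG, and net MFI was read on a Bio-Plex 3D. Only the rhesus variable regions are printed; constant regions are murine IgG1/kappa/lambda, and the signal peptide is MGWSCIILFLVATATGVHS.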
# [2] = biological target: pneumococcal polysaccharide Pn10B
# Method: as §1
# [3] = biological target: pneumococcal polysaccharide Pn10C
# Method: as §1
# [4] = biological target: pneumococcal polysaccharide Pn10F
# Method: as §1
# [5] = biological target: pneumococcal polysaccharide Pn11A
# Method: as §1
# [6] = biological target: pneumococcal polysaccharide Pn11B
# Method: as §1
# [7] = biological target: pneumococcal polysaccharide Pn11C
# Method: as §1
# [8] = biological target: pneumococcal polysaccharide Pn11D
# Method: as §1
# [9] = biological target: pneumococcal polysaccharide Pn11F
# Method: as §1
# [10] = biological target: pneumococcal polysaccharide Pn12A
# Method: as §1
# [11] = biological target: pneumococcal polysaccharide Pn12B
# Method: as §1
# [12] = biological target: pneumococcal polysaccharide Pn12F
# Method: as §1
# [13] = antibody concentration 2337.65 ng/mL
# [14] = antibody concentration 12500 ng/mL
# [15] = antibody concentration 0.1 ng/mL
# [16] = antibody concentration 0.534724 ng/mL
# [17] = antibody concentration 2.8593 ng/mL
# [18] = antibody concentration 15.2894 ng/mL
# [19] = antibody concentration 81.7561 ng/mL
# [20] = antibody concentration 437.17 ng/mL
binder,measurement,setting,value
4-127.3 (protein) chain 1: QVQLQESGPGLVKPSETLSLTCAVSGYSISSGYGWSWIRQPPGKGLEWIGYIGGSSGSTNYNPSLKSRVTVSKDTSKNQFSLKLSSVTAADTAVYYCARADYCTSTTCYGPNRFDVWGPGVLVTVSS chain 2: QAAPTQSPSVSGSAGQSVTISCTGSSSDIGYYNGVSWYQHHPGKAPKLMIYEVSKRPSGVSNRFSGSKSGNTASLTISGLQAADEADYFCSSYAGSGTYIFGAGTRLTVL,fluorescence intensity,[1]; [13],28.5 MFI
same,fluorescence intensity,[1]; [14],36.5 MFI
same,fluorescence intensity,[2]; [15],24.2 MFI
same,fluorescence intensity,[2]; [16],25 MFI
same,fluorescence intensity,[2]; [17],24.5 MFI
same,fluorescence intensity,[2]; [18],22 MFI
same,fluorescence intensity,[2]; [19],26 MFI
same,fluorescence intensity,[2]; [20],23.5 MFI
same,fluorescence intensity,[2]; [13],25.5 MFI
same,fluorescence intensity,[2]; [14],31.5 MFI
same,fluorescence intensity,[3]; [15],16 MFI
same,fluorescence intensity,[3]; [16],17.8 MFI
same,fluorescence intensity,[3]; [17],18.8 MFI
same,fluorescence intensity,[3]; [18],18 MFI
same,fluorescence intensity,[3]; [19],16.5 MFI
same,fluorescence intensity,[3]; [20],17.5 MFI
same,fluorescence intensity,[3]; [13],18.5 MFI
same,fluorescence intensity,[3]; [14],23.5 MFI
same,fluorescence intensity,[4]; [15],20.8 MFI
same,fluorescence intensity,[4]; [16],19.5 MFI
same,fluorescence intensity,[4]; [17],21.5 MFI
same,fluorescence intensity,[4]; [18],20.5 MFI
same,fluorescence intensity,[4]; [19],20 MFI
same,fluorescence intensity,[4]; [20],20 MFI
same,fluorescence intensity,[4]; [13],21.2 MFI
same,fluorescence intensity,[4]; [14],23.5 MFI
same,fluorescence intensity,[5]; [15],30.8 MFI
same,fluorescence intensity,[5]; [16],30.8 MFI
same,fluorescence intensity,[5]; [17],30.2 MFI
same,fluorescence intensity,[5]; [18],26.5 MFI
same,fluorescence intensity,[5]; [19],29 MFI
same,fluorescence intensity,[5]; [20],31.5 MFI
same,fluorescence intensity,[5]; [13],36 MFI
same,fluorescence intensity,[5]; [14],46.8 MFI
same,fluorescence intensity,[6]; [15],25 MFI
same,fluorescence intensity,[6]; [16],26 MFI
same,fluorescence intensity,[6]; [17],27.2 MFI
same,fluorescence intensity,[6]; [18],27.8 MFI
same,fluorescence intensity,[6]; [19],26.8 MFI
same,fluorescence intensity,[6]; [20],29 MFI
same,fluorescence intensity,[6]; [13],32 MFI
same,fluorescence intensity,[6]; [14],34.5 MFI
same,fluorescence intensity,[7]; [15],24.5 MFI
same,fluorescence intensity,[7]; [16],21.5 MFI
same,fluorescence intensity,[7]; [17],22.5 MFI
same,fluorescence intensity,[7]; [18],23 MFI
same,fluorescence intensity,[7]; [19],22.5 MFI
same,fluorescence intensity,[7]; [20],23.5 MFI
same,fluorescence intensity,[7]; [13],30.5 MFI
same,fluorescence intensity,[7]; [14],88 MFI
same,fluorescence intensity,[8]; [15],23.8 MFI
same,fluorescence intensity,[8]; [16],24 MFI
same,fluorescence intensity,[8]; [17],22.5 MFI
same,fluorescence intensity,[8]; [18],23 MFI
same,fluorescence intensity,[8]; [19],23.8 MFI
same,fluorescence intensity,[8]; [20],24 MFI
same,fluorescence intensity,[8]; [13],27 MFI
same,fluorescence intensity,[8]; [14],54.5 MFI
same,fluorescence intensity,[9]; [15],14.5 MFI
same,fluorescence intensity,[9]; [16],14.5 MFI
same,fluorescence intensity,[9]; [17],14.2 MFI
same,fluorescence intensity,[9]; [18],15.5 MFI
same,fluorescence intensity,[9]; [19],16 MFI
same,fluorescence intensity,[9]; [20],15.8 MFI
same,fluorescence intensity,[9]; [13],16.2 MFI
same,fluorescence intensity,[9]; [14],22.5 MFI
same,fluorescence intensity,[10]; [15],16.5 MFI
same,fluorescence intensity,[10]; [16],16.5 MFI
same,fluorescence intensity,[10]; [17],14.8 MFI
same,fluorescence intensity,[10]; [18],15.2 MFI
same,fluorescence intensity,[10]; [19],15.5 MFI
same,fluorescence intensity,[10]; [20],16 MFI
same,fluorescence intensity,[10]; [13],17.5 MFI
same,fluorescence intensity,[10]; [14],29.5 MFI
same,fluorescence intensity,[11]; [15],18 MFI
same,fluorescence intensity,[11]; [16],16 MFI
same,fluorescence intensity,[11]; [17],16 MFI
same,fluorescence intensity,[11]; [18],15.8 MFI
same,fluorescence intensity,[11]; [19],16 MFI
same,fluorescence intensity,[11]; [20],17 MFI
same,fluorescence intensity,[11]; [13],18 MFI
same,fluorescence intensity,[11]; [14],28 MFI
same,fluorescence intensity,[12]; [15],19.5 MFI
same,fluorescence intensity,[12]; [16],19.5 MFI
same,fluorescence intensity,[12]; [17],19.2 MFI
same,fluorescence intensity,[12]; [18],20.8 MFI
same,fluorescence intensity,[12]; [19],19.5 MFI
same,fluorescence intensity,[12]; [20],21 MFI
same,fluorescence intensity,[12]; [13],21.5 MFI
same,fluorescence intensity,[12]; [14],39 MFI

# In a second layout: results already given
binder | measurement | setting | value
4-127.3 (protein) chain 1: QVQLQESGPGLVKPSETLSLTCAVSGYSISSGYGWSWIRQPPGKGLEWIGYIGGSSGSTNYNPSLKSRVTVSKDTSKNQFSLKLSSVTAADTAVYYCARADYCTSTTCYGPNRFDVWGPGVLVTVSS chain 2: QAAPTQSPSVSGSAGQSVTISCTGSSSDIGYYNGVSWYQHHPGKAPKLMIYEVSKRPSGVSNRFSGSKSGNTASLTISGLQAADEADYFCSSYAGSGTYIFGAGTRLTVL | fluorescence intensity | [2]; [16] | 25 MFI
same | fluorescence intensity | [2]; [17] | 24.5 MFI
same | fluorescence intensity | [2]; [18] | 22 MFI
